In this test the target is T1, N-terminal Protein-A tagged Esc2-D430R (S. cerevisiae) (UniProt Q06340).
T1 sequence: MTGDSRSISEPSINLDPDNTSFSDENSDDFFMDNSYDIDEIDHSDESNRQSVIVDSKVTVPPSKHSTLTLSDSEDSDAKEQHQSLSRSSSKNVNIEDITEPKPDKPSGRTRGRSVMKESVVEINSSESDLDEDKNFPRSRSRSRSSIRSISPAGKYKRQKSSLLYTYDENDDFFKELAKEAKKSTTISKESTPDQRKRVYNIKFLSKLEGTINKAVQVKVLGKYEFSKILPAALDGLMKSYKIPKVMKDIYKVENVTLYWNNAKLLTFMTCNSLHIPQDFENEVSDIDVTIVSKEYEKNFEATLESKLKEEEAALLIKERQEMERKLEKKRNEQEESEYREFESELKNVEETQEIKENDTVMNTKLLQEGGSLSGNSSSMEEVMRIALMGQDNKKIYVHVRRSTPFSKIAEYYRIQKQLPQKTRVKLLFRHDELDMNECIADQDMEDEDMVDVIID
Description: condition: 100 μg of purified Ubc9 in a final volume of 200 μL; pull-down; 40 ug Protein-A-Esc2 (WT or D430R) bound to 20 uL IgG resin, incubated with 100 ug purified Ubc9 in 200 uL for 2 hours on ice; washed 5 times with PBS with 0.2% NP-40; bound Ubc9 eluted and seen by Coomassie staining; both purified.

1 molecule from paper PMC7891725, “Shared and distinct roles of Esc2 and Mms21 in suppressing genome rearrangements and regulating intracellular sumoylation” (PLoS ONE, 2021) can be followed below.

Results are given in words; binding and its absence hold for the method and conditions named. Where a sequence is shown, tags or fusion partners need not be part of it.

B1: C-terminal 6xHIS tagged Ubc9 (enzyme, S. cerevisiae, UniProt P50623 1-157, looked up)
chain: MSSLCLQRLQEERKKWRKDHPFGFYAKPVKKADGSMDLQKWEAGIPGKEGTNWAGGVYPITVEYPNEYPSKPPKVKFPAGFYHPNVYPSGTICLSILNEDQDWRPAITLKQIVLGVQDLLDSPNPNSPAQEPAWRSFSRNKAEYDKKVLLQAKQYSK
notes: Ubc9, SUMO E2 conjugating enzyme, S. cerevisiae; also called Ubc9 SUMO conjugating enzyme; E2
B1: the binding result is recorded as “no binding”.
